These are yes or no findings as the source states them, for the method shown. Binding seen in cells or lysates may run through a third protein. Some results given as binding are weak or reduced against the parent protein; the word gives no strength.
Tests used:
[1] = biological target: GFP-tagged Abi1ΔEVH1 (human) (UniProt Q8IZP0); assay: co-IP; immunoprecipitation of GFP-tagged Abi1 or Abi1ΔEVH1 from lysates of transfected cells, immunoblot for Mena and PIR121
[2] = biological target: GFP-tagged Abi1 (human) (UniProt Q8IZP0); assay: as above

By UniProt entry, the sequences of proteins in these tests, tags left out. Where a name states a change or a piece, a line headed by the entry shows the natural chain unless it says otherwise. Chains listed by the source or under a name are the forms on record and can include a tag or linker.
GFP-tagged Abi1ΔEVH1 (Q8IZP0, form named): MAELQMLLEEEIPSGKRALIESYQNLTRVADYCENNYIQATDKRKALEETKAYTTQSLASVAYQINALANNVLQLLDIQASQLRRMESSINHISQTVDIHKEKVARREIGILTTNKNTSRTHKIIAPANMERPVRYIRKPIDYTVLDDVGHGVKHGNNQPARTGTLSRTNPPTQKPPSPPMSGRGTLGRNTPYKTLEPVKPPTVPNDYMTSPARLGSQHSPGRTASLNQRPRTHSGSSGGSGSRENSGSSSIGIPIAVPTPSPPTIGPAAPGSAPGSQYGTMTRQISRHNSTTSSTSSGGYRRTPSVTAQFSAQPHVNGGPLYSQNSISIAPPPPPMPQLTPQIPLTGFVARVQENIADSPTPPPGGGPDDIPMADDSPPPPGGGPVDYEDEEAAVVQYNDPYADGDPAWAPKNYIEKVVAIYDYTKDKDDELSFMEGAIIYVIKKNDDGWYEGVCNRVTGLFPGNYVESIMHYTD
GFP-tagged Abi1 (Q8IZP0, form named): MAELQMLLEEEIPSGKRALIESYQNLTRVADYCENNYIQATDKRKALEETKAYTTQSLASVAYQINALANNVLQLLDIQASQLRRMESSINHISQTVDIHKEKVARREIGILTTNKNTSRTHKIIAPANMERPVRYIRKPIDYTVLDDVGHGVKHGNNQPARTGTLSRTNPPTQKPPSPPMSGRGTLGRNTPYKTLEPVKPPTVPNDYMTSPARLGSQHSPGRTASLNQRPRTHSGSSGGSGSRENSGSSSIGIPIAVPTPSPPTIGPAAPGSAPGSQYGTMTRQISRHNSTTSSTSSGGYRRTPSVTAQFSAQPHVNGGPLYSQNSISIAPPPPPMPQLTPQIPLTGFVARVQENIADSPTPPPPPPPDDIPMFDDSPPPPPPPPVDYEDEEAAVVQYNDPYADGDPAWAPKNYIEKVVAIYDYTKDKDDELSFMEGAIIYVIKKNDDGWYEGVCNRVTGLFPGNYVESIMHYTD
UniProt Q96F07: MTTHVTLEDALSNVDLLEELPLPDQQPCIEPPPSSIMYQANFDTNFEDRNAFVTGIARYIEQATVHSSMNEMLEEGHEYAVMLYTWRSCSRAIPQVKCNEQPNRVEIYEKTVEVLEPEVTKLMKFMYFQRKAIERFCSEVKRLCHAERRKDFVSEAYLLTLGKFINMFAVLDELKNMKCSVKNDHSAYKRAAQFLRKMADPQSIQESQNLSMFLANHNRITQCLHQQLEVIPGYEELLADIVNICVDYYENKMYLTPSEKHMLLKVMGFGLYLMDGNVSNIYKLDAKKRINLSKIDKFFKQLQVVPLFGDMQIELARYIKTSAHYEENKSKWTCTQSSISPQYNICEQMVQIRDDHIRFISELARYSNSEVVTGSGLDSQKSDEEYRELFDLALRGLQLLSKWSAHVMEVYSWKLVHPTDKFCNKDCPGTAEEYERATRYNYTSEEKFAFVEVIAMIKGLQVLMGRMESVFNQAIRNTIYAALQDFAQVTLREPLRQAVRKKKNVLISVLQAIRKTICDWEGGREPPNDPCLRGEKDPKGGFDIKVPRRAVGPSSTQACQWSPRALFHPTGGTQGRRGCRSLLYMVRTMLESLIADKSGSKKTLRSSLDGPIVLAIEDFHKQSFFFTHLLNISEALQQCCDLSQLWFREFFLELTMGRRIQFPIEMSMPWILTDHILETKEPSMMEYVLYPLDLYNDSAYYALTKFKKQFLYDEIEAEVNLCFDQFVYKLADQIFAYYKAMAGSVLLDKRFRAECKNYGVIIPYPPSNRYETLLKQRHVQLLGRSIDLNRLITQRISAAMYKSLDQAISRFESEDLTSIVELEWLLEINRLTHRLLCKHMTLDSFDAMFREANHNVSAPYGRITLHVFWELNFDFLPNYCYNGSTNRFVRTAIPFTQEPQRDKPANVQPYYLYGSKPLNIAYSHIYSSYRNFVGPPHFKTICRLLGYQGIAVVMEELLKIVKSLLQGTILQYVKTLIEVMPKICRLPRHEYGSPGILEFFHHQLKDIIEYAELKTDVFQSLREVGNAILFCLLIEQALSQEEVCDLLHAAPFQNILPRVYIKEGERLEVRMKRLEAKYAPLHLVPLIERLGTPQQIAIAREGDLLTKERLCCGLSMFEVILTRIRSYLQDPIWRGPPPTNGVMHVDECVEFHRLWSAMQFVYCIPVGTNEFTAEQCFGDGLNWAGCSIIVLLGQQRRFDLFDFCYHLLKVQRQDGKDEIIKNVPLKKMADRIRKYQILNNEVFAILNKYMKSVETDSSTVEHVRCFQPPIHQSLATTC

binding [1]: binds | binding [2]: binds
Substance: PIR121 (in lysate of cells expressing GFP-Abi1) (from UniProt Q96F07 1-1278)
